Test results as given in paper PMC8765435, “In Vitro Antimalarial Activity of Inhibitors of the Human GTPase Rac1” (Antimicrobial Agents and Chemotherapy, 2022).

Test system: HMEC-1 human microvascular endothelial cells
Assay: Cell cytotoxicity MTT assay
Assay type: cell-based
Settings: ratio IC50 against HMEC-1 cells / IC50 against D10 asexual parasites
Procedure: Cytotoxicity was evaluated on human microvascular endothelial cells (HMEC-1) as detailed in the supplemental material. […] Plates were then read on a microplate reader (Synergy 4; BioTek) at a wavelength of 550 nm (reference, 650 nm). […] All tests were performed in duplicate at least three times.
The selectivity index (SI) is the ratio between the cytotoxic IC50 value against HMEC-1 cells and the parasitic IC50 value against the D10 strain and indicates the compound selectivity for the parasite.
Cytotoxicity was evaluated on Human Microvascular Endothelial Cells (HMEC-1) maintained
and 2 mM L-glutamine. Cells were seeded in 96 well flat bottom tissue culture clusters (1.5x104
cells/well), let adhere overnight and treated with serial dilutions of test compounds . […]

O=c1cc(CN2CCOCC2)occ1OCCCCCSc1ccnc2cc(C(F)(F)F)ccc12 [EHT1864]
SI (selectivity index): 12.5
